The record followed here is PubChem BioAssay AID2685 (National Center for Advancing Translational Sciences (NCATS), 2010).

Structures are written as SMILES. This is one part of the list. These are further read-outs of the screen, such as a control signal, another cell line or another target. No call is given for them. Most of these compounds were active or inconclusive in the main read-out, so they are no random draw. The note in brackets gives the kind of curve behind each potency; many fits are weak.

The nature of this assay: qHTS Assay for Lipid Storage Modulators in Drosophila S3 Cells.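 For cell number change: cells counted by Cell Tracker Red CMTPX staining in the red channel.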 Particulars: BODIPY lipid droplet fluorescence, 18-24 h; for cell number change: measured here: cell count max response, cells fed with added oleic acid. In a few lines:
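Drosophila S3 cells got compounds at several concentrations plus oleic acid (400 uM solution). Laser-scanning cytometry with 488 nm excitation read lipid droplets at 500-530 nm and cells at 575-640 nm. Percent activity was relative to 20 uM Triacsin C.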
(Quantitative high-throughput screening tests each substance at several concentrations.)

[1] abbreviates: measured here: cell number channel AC50, cells fed with added oleic acid.
Where [2] appears, read: measured here: lipid fluorescence (Fed channel) AC50, cells fed with added oleic acid.

By AC50 is commonly meant the concentration giving half of the maximal activity seen. Read a low AC50 as activity at low concentration. In the case of `Cc1cc(NC(=O)Cn2c(=O)n(CCCCC(=O)NC3CCN(Cc4ccccc4)CC3)c(=O)c3ccccc32)n[nH]1`, the cell number change was -42.7%. Besides, the half-maximal activity concentration (AC50) under setting [1] is 25.9 µM [falling, single point]. Also, the concentration at half-maximal activity (AC50) under setting [2] is 29.1 µM [falling, single point].

As for `CCOC(=O)N1CCC(N2CCN(c3cc(C)ccc3C)CC2)CC1`, the cell number change is 84.7%. Further, the half-maximal activity concentration (AC50) under setting [1] is 16.4 µM [rising, partial curve]. Consider `CN1CCN(C(=S)c2cn(Cc3ccccc3F)c3ccccc23)CC1`, for which the cell number change amounted to 18.3%.

Regarding `COc1ccc(N2CCN(C(CNC(=O)C(=O)NCC(OC)OC)c3ccco3)CC2)cc1` (stereo unspecified), the cell number change amounted to 4.28%.

Turning to `Cc1ccnn1Cc1cc(C(=O)O)c2ccccc2n1`, the cell number change amounted to 1.19%. Also, under setting [1], the concentration at half-maximal activity (AC50) was 4.11 µM [falling, partial curve].

Turning to `Cc1ccc(NC(=O)c2noc3c2CCc2ccccc2-3)cc1`, the cell number change worked out at 93.5%. The AC50 under setting [1] was 1.84 µM [rising, full curve]. For the same compound, the concentration at half-maximal activity (AC50) under setting [2] is 23.1 µM [rising, partial curve]. Regarding `O=C(CSc1nnnn1Cc1ccccc1)NC1CCCCC1`, the cell number change was -35.3%. For the same compound, the AC50 under setting [1] was 2.91 µM [falling, single point]. For `Cc1ccccc1NS(=O)(=O)c1ccc(NC(=O)N2CCCCC2)cc1`, the cell number change was -46.4%. Also, the half-maximal activity concentration (AC50) under setting [1] is 25.9 µM [falling, partial curve].

For the compound `CCOC(=O)c1c(CC(C)C)csc1NC=O`, the cell number change was -66.7%. Moreover, the AC50 under setting [1] was 14.6 µM [falling, partial curve]. In addition, the concentration at half-maximal activity (AC50) under setting [2] was 6.51 µM [rising, single point]. In the case of `CN([C@@H](C(=O)OC(C)(C)C)c1ccccc1)S(=O)(=O)c1cccc(S(=O)(=O)N(C)[C@@H](C(=O)OC(C)(C)C)c2ccccc2)c1`, the cell number change is 73.8%. Further, under setting [1], the concentration at half-maximal activity (AC50) was 20.6 µM [rising, partial curve]. Consider `Cc1cc(C(=O)OCC(=O)Nc2cc(S(=O)(=O)N(C)C)ccc2C)c(C)o1`, for which the cell number change was -56.8%. Under setting [1], the AC50 is 20.6 µM [falling, single point]. Under setting [2], the AC50 was 18.4 µM [falling, partial curve].

Turning to `O=C(NC(=S)Nc1ccccc1N1CCOCC1)c1cccs1`, the cell number change was -2.22%. The AC50 under setting [2] is 1.64 µM [rising, partial curve]. On to `Clc1cccc(CNCCNCc2cccc(Cl)c2)c1`, for which the cell number change was found to be 53.6%. Besides, under setting [1], the AC50 is 5.8 µM [rising, partial curve]. For `Nc1cc(Cl)ccc1N1CCCC1`, the cell number change turned out to be 43.7%. Also, under setting [1], the AC50 was 20.6 µM [rising, single point]. The AC50 under setting [2] was 29.1 µM [rising, single point]. `CC(C)COC(=O)Nc1nnc(Cc2ccccc2)s1`: the cell number change was 1.3%. Besides, under setting [1], the AC50 was 0.58 µM [rising, single point].

For `COc1ccc(N2CCN(C(=O)c3ccc(Br)cc3)CC2)c([N+](=O)[O-])c1`, the cell number change was -31.5%. Regarding `COc1ccc(C)cc1S(=O)(=O)N(CC(=O)NCc1ccc(Cl)cc1)Cc1ccccc1`, the cell number change came out at 111%. For the same compound, under setting [1], the half-maximal activity concentration (AC50) is 9.2 µM [rising, partial curve]. In addition, the AC50 under setting [2] is 14.6 µM [rising, partial curve]. For the compound `Cc1ccc(Cc2c(C)nc3nc(SCC(=O)NCCCN4CCCCC4)nn3c2C)cc1`, the cell number change was 31.4%. Under setting [1], the AC50 was 13 µM [rising, partial curve, poor fit]. Regarding `Cc1sc2nc(C(C)Nc3ccccc3N3CCOCC3)[nH]c(=O)c2c1C` (stereo unspecified), the cell number change worked out at 40.4%. The AC50 under setting [1] was 20.6 µM [rising, single point]. The AC50 under setting [2] is 18.4 µM [falling, single point]. Consider `COc1cc(OC)cc(-c2nnc(SCC(=O)N3CCOCC3)o2)c1`, for which the cell number change was -27.3%. Besides, the concentration at half-maximal activity (AC50) under setting [2] was 29.1 µM [falling, single point].

On to `NS(=O)(=O)c1ccc(NC(=O)COC(=O)c2ccc(Cl)nc2)cc1`, for which the cell number change was -51.7%.

`Cc1ccc(CN=C2NC(=O)C(CC(=O)NCCc3ccccc3)S2)cc1` (stereo unspecified): the cell number change was 20.3%.

For `CCOc1ccc(NC(=S)NCCCN2CCN(C3CCCCC3)CC2)cc1`, the cell number change was -25%. Under setting [2], the AC50 is 0.13 µM [falling, full curve, poor fit]. Turning to `CC1(C)Cc2c(c(N3CCOCC3)nc3sc4c(NN)ncnc4c23)CS1`, the cell number change worked out at 2.81%. For the same compound, the AC50 under setting [1] is 6.51 µM [rising, single point]. Moreover, under setting [2], the concentration at half-maximal activity (AC50) is 11.6 µM [rising, single point].

On to `COc1ccccc1CNC(=O)C(=O)NCC1OCCN1C(=O)c1ccc(Cl)cc1` (stereo unspecified), for which the cell number change amounted to 6.59%. As to `O=C(NNS(=O)(=O)c1ccccc1)c1ccc(S(=O)(=O)N2CCCCC2)cc1`, the cell number change turned out to be 0.911%.

For the compound `CCc1ccc(C(=O)NNC(=O)C2CC(=O)N(c3ccc4c(c3)OCCO4)C2)cc1` (stereo unspecified), the cell number change was 9.39%. For the same compound, the AC50 under setting [2] was 8.2 µM [rising, partial curve, poor fit]. In the case of `Cn1c(SCc2ccccc2)nnc1-c1ccncc1`, the cell number change was -4.26%. Besides, the half-maximal activity concentration (AC50) under setting [1] is 0.651 µM [falling, single point]. Also, under setting [2], the AC50 is 0.651 µM [falling, partial curve, poor fit]. Regarding `COc1ccc(C(=O)CSc2nnc(-c3ccccn3)n2Cc2ccco2)cc1`, the cell number change turned out to be 2.51%. Besides, the AC50 under setting [2] was 8.2 µM [rising, partial curve]. Regarding `CNC(=S)N1CCc2cc(OC)c(OC)cc2C1COc1ccc(OC)cc1` (stereo unspecified), the cell number change was -6.23%. In the case of `Cc1ccc(NC(=S)/N=C(\N)Nc2nc(C)c3cc(C)c(C)cc3n2)cc1C`, the cell number change amounted to 127%. For the same compound, under setting [1], the half-maximal activity concentration (AC50) was 13 µM [rising, partial curve]. In addition, under setting [2], the concentration at half-maximal activity (AC50) is 0.651 µM [rising, partial curve, poor fit].

For the compound `CCCCOCC1CN(c2ccccc2)C(=O)CS1` (stereo unspecified), the cell number change was -3.84%. Besides, the concentration at half-maximal activity (AC50) under setting [2] was 3.26 µM [rising, single point]. Consider `CN1CC=C2C(C#N)=C(N)C(C#N)(C#N)C(Cc3ccccc3)C2C1` (stereo unspecified), for which, under setting [1], the concentration at half-maximal activity (AC50) is 2.59 µM [rising, partial curve]. For `CC(C(=O)NC1CCCCCC1)n1cc([N+](=O)[O-])cn1` (stereo unspecified), the cell number change is -7.62%. The concentration at half-maximal activity (AC50) under setting [2] was 29.1 µM [falling, partial curve]. In the case of `CN(C)CCNC(=O)NC1CCCCC1`, the cell number change came to 4.05%. In addition, the AC50 under setting [2] was 32.6 µM [falling, single point].

As for `CNC(=S)N/N=C(\C)c1ccc(C(C)(C)C)cc1`, the cell number change is -21.6%. In addition, the half-maximal activity concentration (AC50) under setting [2] was 29.1 µM [falling, single point]. Turning to `COc1ccc(Cl)c(NC(=O)C/C(C)=N/NC(=O)CCc2ccccc2)c1`, the cell number change is -13.5%.

`COc1ccc2c(c1)C1(Nc3ccccc3-c3nc4ccccc4n31)C(=O)N2C` (stereo unspecified): the cell number change is -33.4%. Moreover, the AC50 under setting [1] was 32.6 µM [falling, single point]. `COc1cc(CNc2ccc3[nH]c(=O)[nH]c3c2)ccc1OCc1ccccc1C`: the cell number change was -14.1%. Also, the AC50 under setting [2] was 10.3 µM [falling, single point]. Consider `CCOC(=O)CSc1[nH]c2cc(OC)ccc2c1[N+](=O)[O-]`, for which the cell number change is -19.5%. For the same compound, the concentration at half-maximal activity (AC50) under setting [2] was 4.11 µM [falling, full curve]. As to `O=C(CSc1nnc(COc2ccccc2)n1-c1ccccc1)c1ccccc1`, the cell number change was -11.3%. Further, the AC50 under setting [2] is 0.082 µM [rising, full curve, poor fit]. With `N#Cc1cnn2ccn(C3OC(CO)C(O)C3O)c12` (stereo unspecified), the cell number change was -16.1%. In addition, the AC50 under setting [2] is 0.00411 µM [falling, full curve, poor fit].

`Cc1ccccc1-c1ccc(C=Nc2c(C)n(C)n(-c3ccccc3)c2=O)o1`: the cell number change was 3.41%. Under setting [1], the concentration at half-maximal activity (AC50) is 0.00461 µM [falling, full curve, poor fit]. Moreover, the AC50 under setting [2] was 0.731 µM [falling, full curve]. As to `COc1ccc(C(C(=O)NC2CCCC2)N(Cc2cccnc2)C(=O)c2snc(C(N)=O)c2N)cc1OC` (stereo unspecified), the cell number change turned out to be 15.4%. Regarding `COc1ccc(-c2ccnc3c(C(=O)O)cnn23)cc1`, the half-maximal activity concentration (AC50) under setting [2] is 6.51 µM [falling, single point]. For the compound `Cc1nn(-c2ccccc2)c(Cl)c1C(=O)Nc1nnc(C2CCCC2)s1`, the cell number change was -14.4%. The concentration at half-maximal activity (AC50) under setting [2] was 8.2 µM [rising, partial curve, poor fit]. Turning to `O=C(NC1=NCCS1)c1cccc(S(=O)(=O)N2CCCCC2)c1`, the cell number change is 5.77%. The AC50 under setting [1] is 0.651 µM [rising, partial curve]. Turning to `O=C(Oc1ccc(Cl)cc1N1C(=O)CCC1=O)c1ccco1`, the cell number change is -124%. Also, the concentration at half-maximal activity (AC50) under setting [1] was 23.1 µM [falling, partial curve]. For the same compound, the half-maximal activity concentration (AC50) under setting [2] was 25.9 µM [falling, partial curve]. `O=C(Nc1ccccc1N1CCOCC1)C1=NN(c2c(F)c(F)cc(F)c2F)C(=O)CC1`: the cell number change was -12.1%. Besides, the AC50 under setting [2] is 20.6 µM [falling, partial curve, poor fit]. Consider `CCN(C(=O)c1coc(=O)c2ccccc12)c1cc(OC)ccc1OC`, for which the cell number change stood at 108%. Also, the concentration at half-maximal activity (AC50) under setting [1] was 9.2 µM [rising, partial curve]. The AC50 under setting [2] was 2.91 µM [rising, partial curve]. For `COc1cccc(S(=O)(=O)NCc2ccc(C(=O)Nc3ccc(Cl)cc3)cc2)c1`, the cell number change was -19.6%. In addition, the AC50 under setting [2] is 32.6 µM [falling, single point]. Consider `O=c1[nH]c(C2CCN(S(=O)(=O)c3cccc([N+](=O)[O-])c3)CC2)nc2c1nnn2Cc1ccccc1`, for which the cell number change is -8.97%. Regarding `CC(C)CNS(=O)(=O)c1cc(C(=O)N2CCOCC2)c(Cl)cc1Cl`, the AC50 under setting [1] is 0.116 µM [falling, full curve, poor fit]. Regarding `CCCCC(=O)NC(=S)Nc1cccc(NC(=O)c2ccccc2)c1`, the cell number change amounted to 14.6%. Further, the AC50 under setting [2] was 4.61 µM [rising, full curve, poor fit]. Turning to `O=C(CNC(=O)c1nc[nH]c1C(=O)NCc1ccccc1)OCc1ccccc1`, the cell number change turned out to be 33.5%.

As to `COC(=O)/C(=C\Nc1ccc(Cl)c2ccccc12)c1ncc(C(F)(F)F)cc1Cl`, the AC50 under setting [1] is 0.517 µM [rising, partial curve]. Regarding `CC1CCN(c2ccccc2NC(=S)NC(=O)c2ccc(-c3cccc([N+](=O)[O-])c3)o2)CC1`, the cell number change came to 1.91%. Moreover, under setting [2], the AC50 was 0.231 µM [rising, full curve, poor fit].

`CC1(c2ccccc2)NC(=O)N(CC#N)C1=O` (stereo unspecified): the cell number change is -10.9%. The AC50 under setting [1] was 0.206 µM [falling, full curve]. Turning to `CCC1(C)Cc2c(sc3nnn(CC(=O)Nc4ccccc4)c(=O)c23)CO1` (stereo unspecified), the cell number change was -13.7%. The AC50 under setting [1] is 6.51 µM [rising, single point]. Also, under setting [2], the AC50 was 6.51 µM [rising, partial curve, poor fit].
